# How the values were obtained:
# Format in all cases: cell-based, human
# [1] = tested on: Rab5-GFP early endosomes in Saos-2 cells; assay: Confocal colocalization with early endosome marker; conditions: 2^SiR 600 nM, 30 min
# [2] = tested on: Rab7-GFP late endosomes in Saos-2 cells; assay: Confocal colocalization with late endosome marker; conditions: 2^SiR 600 nM, 30 min
# [3] = tested on: Lamp1-GFP lysosomes in Saos-2 cells; assay: Confocal colocalization with lysosome marker; conditions: 2^SiR 600 nM, 30 min
# [4] = tested on: Saos-2 cells; assay: In cellulo FCS diffusion time; conditions: FCS in Saos-2 cells
# [5] = CORVET-deficient cells (TGFBRAP1 siRNA)
# [6] = HOPS-deficient cells (VPS39 siRNA)
# [7] = non-targeting (RISC-Free) siRNA
Substance,"Pearson r, colocalization with EEs [1, 5]","Pearson r, colocalization with EEs [1, 6]","Pearson r, colocalization with EE marker Rab5-GFP [1, 7]","Pearson r, colocalization with LEs [2, 5]","Pearson r, colocalization with LEs [2, 6]","Pearson r, colocalization with LE marker Rab7-GFP [2, 7]","Pearson r, colocalization with LYs [3, 5]","Pearson r, colocalization with LYs [3, 6]","Pearson r, colocalization with LY marker Lamp1-GFP [3, 7]",Average τdiff in cellulo at 37 °C In cytosol [4],Average τdiff in cellulo at 37 °C In nucleus [4]
K^SiR-WYSCNVCGKAFVLSRHLNRHLRVHRRAT-CONH2 [2^SiR],0.083 ± 0.013,0.05 ± 0.01,0.05 ± 0.01,0.21 ± 0.015,0.21 ± 0.016,0.25 ± 0.016,0.47 ± 0.021,0.35 ± 0.026,0.57 ± 0.027,–,–
Ac-KKKKKKKKK-NH2 [Lys9^UL],–,–,–,–,–,–,–,–,–,0.274 ± 0.019 ms,0.236 ± 0.015 ms
